Drawing on the supplement of paper PMC12578635, this text covers intracellular bacterial bioluminescence for 92 compounds.

The other results are listed elsewhere or left out. Rule as the data show it: active = 150% or more and inactive = the rest. Many values rest on one well or one pass, so single values are uncertain.

The subject of the assay is Staphylococcus aureus JE2-lux inside RAW 264.7 macrophages. The assay is described as follows: intracellular bacterial bioluminescence relative to DMSO vehicle; higher = higher intracellular bacterial metabolic activity. The note with it: 10 µM; treatment time 4 h; gentamicin 50 µg/ml.
Consider `Cc1cccc(-c2ccc(C(=O)NCC(C)C)cn2)c1`, for which the intracellular bacterial bioluminescence was inactive: 42.3%.

As to `COC(=O)C1=C(NC(=O)c2cc3ccccc3oc2=O)CCS1`, the intracellular bacterial bioluminescence was inactive: 83.8%.

For the compound `Cc1cc(NC(=O)CSc2nc(=O)cc(N)n2-c2ccc(F)cc2)no1`, the intracellular bacterial bioluminescence is inactive: 114%.

In the case of `CCN1CCCC1CNC(=O)C(=O)c1cn(CC(=O)N2CCCCCC2)c2ccccc12` (configuration not stated), the intracellular bacterial bioluminescence was inactive: 85.6%.

On to `COc1ccc2nc(NC(=O)CSc3ncccc3C(=O)O)sc2c1`, for which the intracellular bacterial bioluminescence was inactive: 125%.

For `Cc1ccc(NCc2cc3cc4c(cc3n(CC(=O)Nc3cc(F)ccc3F)c2=O)OCCO4)cc1`, the intracellular bacterial bioluminescence was inactive: 67.4%.

Turning to `CCc1cccc2c(O)c(C(=O)NCc3cccnc3)cnc12`, the intracellular bacterial bioluminescence was inactive: 94.1%.

Turning to `Cc1nc2nc(Cc3cccc(F)c3)nn2c(O)c1C`, the intracellular bacterial bioluminescence is inactive: 87.3%.

Regarding `CC(C)c1csc(-c2csc(S(=O)(=O)Nc3ccc(Br)cc3F)c2)n1`, the intracellular bacterial bioluminescence is inactive: 98.5%.

As to `CCN1CCN(c2nc(NCCCN3CCOCC3)nc(N)c2[N+](=O)[O-])CC1`, the intracellular bacterial bioluminescence was inactive: 124%.

`O=C(O)c1cccc(Nc2nc(-c3ccccc3)c3cc(Cl)ccc3n2)c1`: the intracellular bacterial bioluminescence is inactive: 110%.

For the compound `Cc1cc2c(cc1C)NC(CC(=O)NC1CCCCC1)C(=O)N2` (configuration not stated), the intracellular bacterial bioluminescence was inactive: 81.6%.

`Cc1nn(-c2cccc(Cl)c2)c2nc(-c3ccccn3)cc(C(F)(F)F)c12`: the intracellular bacterial bioluminescence is inactive: 93.5%.

`COc1ccc2nc3sc(C(=O)NCCc4c[nH]c5ccccc45)c(N)c3cc2c1`: the intracellular bacterial bioluminescence was inactive: 114%.

Turning to `CC1CCCCN1c1nc2c(c(=O)[nH]c(=O)n2C)n1Cc1ccccc1` (configuration not stated), the intracellular bacterial bioluminescence is inactive: 121%.

Regarding `O=C(Nc1ccccc1)N1CCC(n2cnc3cc(F)ccc32)CC1`, the intracellular bacterial bioluminescence is inactive: 99%.

Turning to `O=C(CSc1nc2ccccc2n1Cc1ccccc1F)Nc1ccc2c(c1)OCCO2`, the intracellular bacterial bioluminescence was inactive: 58.2%.

In the case of `Cc1cccc(NC(=O)c2cccc3c2-c2ccccc2C3=O)n1`, the intracellular bacterial bioluminescence was inactive: 91.1%.

Regarding `CC1(C)COc2ccc(NC(=O)C3CCCC3)cc2NC1=O`, the intracellular bacterial bioluminescence was inactive: 115%.

Turning to `COC(=O)c1sc(-c2ccccc2)cc1NC(=O)c1cc(OC)cc(OC)c1`, the intracellular bacterial bioluminescence was inactive: 123%.

As for `NC(=O)c1cc2cc(Cl)ccc2o/c1=N/NC(=O)c1cccc(F)c1`, the intracellular bacterial bioluminescence was inactive: 109%.

In the case of `CCCc1nnc(SCC(=O)Nc2cccc(C(F)(F)F)c2)n1-n1cccc1`, the intracellular bacterial bioluminescence was inactive: 31.3%.

With `CCOc1ccccc1CNC(=O)C1CCCN(c2nc(C)nc3onc(C)c23)C1` (configuration not stated), the intracellular bacterial bioluminescence is inactive: 102%.

In the case of `COc1ccc(C(=O)CSc2nc3c(C)cc(C)cc3cc2C#N)cc1OC`, the intracellular bacterial bioluminescence is inactive: 97.1%.

Regarding `Cc1ccc(C)c(NC(=O)c2c(-c3ccccc3Cl)noc2C)c1`, the intracellular bacterial bioluminescence was inactive: 62%.

As to `COC(=O)c1sccc1NC(=O)CSc1nccnc1N1CCN(c2cccc(C)c2C)CC1`, the intracellular bacterial bioluminescence is inactive: 62.5%.

On to `COc1ccccc1-n1c(CNC(=O)c2ccccc2F)n[nH]c1=S`, for which the intracellular bacterial bioluminescence was inactive: 97.2%.

As to `CCCCc1ccc(NC(=O)CSC2=NS(=O)(=O)c3cc(F)ccc3N2)cc1`, the intracellular bacterial bioluminescence is inactive: 124%.

Consider `Cc1cccn2c(=O)c(C=O)c(Nc3ccc([N+](=O)[O-])cc3)nc12`, for which the intracellular bacterial bioluminescence is inactive: 90%.

As to `Cc1[nH]c2c(C(=O)Nc3ccc(Cl)cc3)cnn2c(=O)c1C`, the intracellular bacterial bioluminescence was inactive: 129%.

On to `COCCCNc1nc2c(-c3ccc(Cl)cc3)nnn2c2ccccc12`, for which the intracellular bacterial bioluminescence was inactive: 98.5%.

Take `Cc1ccc(N2C(=O)NC3CC2(C)Oc2ccccc23)cc1Cl` (configuration not stated): the intracellular bacterial bioluminescence was inactive: 36.7%.

For the compound `Cc1nnc(SCC(=O)NCCc2ccccc2)[nH]c1=O`, the intracellular bacterial bioluminescence is inactive: 115%.

Take `COc1ccc(C)c2sc(NC(=O)C3=COCCO3)nc12`: the intracellular bacterial bioluminescence was inactive: 72.3%.

For the compound `Cc1cc2c(cc1NC(=O)C1OCOc3ccccc31)OCCO2` (configuration not stated), the intracellular bacterial bioluminescence was inactive: 87.6%.

For `CCOC(=O)c1c(NC(=O)c2cc(-c3cccs3)on2)sc2c1CCC2`, the intracellular bacterial bioluminescence is inactive: 91.3%.

On to `CC(=O)c1sc(Nc2nc3cc4c(cc3s2)OCO4)nc1C`, for which the intracellular bacterial bioluminescence is inactive: 109%.

Consider `COc1ccc(-c2c(C#N)c(N)nc3sc(C(=O)c4ccc(Cl)cc4)c(N)c23)cc1OC`, for which the intracellular bacterial bioluminescence is inactive: 95.6%.

As for `Cc1cccc(NC(=O)CSc2nnc3sc4ccccc4n23)c1`, the intracellular bacterial bioluminescence was inactive: 98%.

With `CCCc1cc(=O)n2c([nH]c3ccccc32)c1C#N`, the intracellular bacterial bioluminescence was inactive: 96.9%.

Regarding `CCc1cccc(Nc2cc(-n3nc(C)cc3C)ncn2)c1`, the intracellular bacterial bioluminescence was inactive: 39.2%.

With `CCOCCCNc1nc(-c2nnc(-c3ccccc3)o2)nc2ccccc12`, the intracellular bacterial bioluminescence was inactive: 39.3%.

Take `O=C1Nc2ccccc2/C1=N/NC(=O)C(c1ccccc1)c1ccccc1`: the intracellular bacterial bioluminescence was inactive: 86.9%.

Turning to `Cc1sc2nc(SCC(=O)c3ccc4c(c3)NC(=O)CO4)nc(N)c2c1C`, the intracellular bacterial bioluminescence was inactive: 92.4%.

Regarding `Cc1c(C)n(CCCN2CCOCC2)c2ncn3nc(C(C)N4C(=O)c5ccccc5C4=O)nc3c12` (configuration not stated), the intracellular bacterial bioluminescence was inactive: 114%.

Regarding `CC1=C(C(=O)OCc2ccccc2)C(c2ccc(O)cc2)n2ncnc2N1` (configuration not stated), the intracellular bacterial bioluminescence is inactive: 121%.

For the compound `O=C(CSc1nnc2sc3ccccc3n12)NCc1ccco1`, the intracellular bacterial bioluminescence is inactive: 81.8%.

Turning to `COCCCNc1nc2c(c(=O)[nH]c(=O)n2C)n1CC(=O)c1ccccc1`, the intracellular bacterial bioluminescence is inactive: 102%.

In the case of `CCCCN(C)C(=O)CSc1nccnc1N1CCN(c2cccc(C)c2C)CC1`, the intracellular bacterial bioluminescence is inactive: 32.3%.

With `CCn1cc(NC(=O)Nc2nccs2)c2ccccc21`, the intracellular bacterial bioluminescence was inactive: 123%.

In the case of `COc1cccc(OC(C)C(=O)Nc2nc3c(s2)CCc2c-3cnn2C)c1` (configuration not stated), the intracellular bacterial bioluminescence is inactive: 85.5%.

As for `COc1ccc(C2c3cccn3CCN2C(=O)Nc2ccc(C)c(C)c2)cc1` (configuration not stated), the intracellular bacterial bioluminescence was inactive: 83.5%.

In the case of `Nc1c(C(=O)c2ccccc2)sc2nc3cc4c(cc3cc12)OCO4`, the intracellular bacterial bioluminescence is inactive: 41.3%.

On to `O=S(=O)(c1ccc(N2CCC(CNc3ncccn3)CC2)cc1)N1CCCC1`, for which the intracellular bacterial bioluminescence is inactive: 18%.

With `COc1ccccc1NC(=O)CSc1ncnc2c1sc1nc3cc(C)ccc3cc12`, the intracellular bacterial bioluminescence is inactive: 104%.

As for `Cn1c(=O)c2c(SCc3ccc(Cl)cc3Cl)ccnc2n(C)c1=O`, the intracellular bacterial bioluminescence was inactive: 106%.

In the case of `O=C(NCCC1CCCCN1S(=O)(=O)c1ccccc1)C(=O)NCc1cccnc1` (configuration not stated), the intracellular bacterial bioluminescence was inactive: 77.9%.

Regarding `COc1cccc(/C=N/NC(=O)c2cc3cc([N+](=O)[O-])ccc3s2)c1O`, the intracellular bacterial bioluminescence was inactive: 110%.

For `O=C(c1ccc(Cn2c(=O)c(=O)[nH]c3cccnc32)cc1)N1CCN(c2ncccn2)CC1`, the intracellular bacterial bioluminescence is inactive: 101%.

Turning to `C=CCNC(=O)CCCCCn1c(=O)[nH]c2ccsc2c1=O`, the intracellular bacterial bioluminescence was inactive: 101%.

Consider `[N-]=[N+]=NC1CC(CO)OC1n1ccc(=O)[nH]c1=O` (configuration not stated), for which the intracellular bacterial bioluminescence is inactive: 95.5%.

On to `O=C(Nc1cc(C(F)(F)F)ccc1Cl)c1cnc2n(c1=O)CCS2`, for which the intracellular bacterial bioluminescence was inactive: 113%.

In the case of `CC1CCc2c(sc(NC(=O)CN(C(=O)c3ccco3)C3CCCCC3)c2C(N)=O)C1` (configuration not stated), the intracellular bacterial bioluminescence was inactive: 62.6%.

With `CCc1ccc(NC(=O)c2cnn3c(N)c(C#N)c(-c4ccc(Br)cc4)nc23)cc1`, the intracellular bacterial bioluminescence was inactive: 97.3%.

As to `CC(=O)c1ccc(Nc2nc(N3CCOCC3)nc(N3CCOCC3)n2)cc1`, the intracellular bacterial bioluminescence is inactive: 78.1%.

In the case of `Cc1ccsc1C1C2=C(COC2=O)Nc2c1c(=O)[nH]c(=O)n2CC(C)C` (configuration not stated), the intracellular bacterial bioluminescence was inactive: 116%.

With `C/C(=N\N)c1c(-c2ccccc2)c2cc(C)ccc2[nH]c1=O`, the intracellular bacterial bioluminescence is inactive: 80.4%.

For the compound `O=C(N/N=C/c1csc([N+](=O)[O-])c1)c1cc2ccccc2cc1O`, the intracellular bacterial bioluminescence is inactive: 5.12%.

With `CCOCCCNC(=O)C(=O)c1cn(CC(=O)N2CCCCCC2)c2ccccc12`, the intracellular bacterial bioluminescence is inactive: 105%.

In the case of `COc1ccc(NC(=O)CSc2nccn(-c3ccc(C)c(F)c3)c2=O)c(OC)c1`, the intracellular bacterial bioluminescence was inactive: 124%.

Turning to `COc1cc2nc(NC(=O)c3ccc(C(C)=O)cc3)sc2cc1OC`, the intracellular bacterial bioluminescence was inactive: 88.2%.

For the compound `O=C(NCCS(=O)c1c(-c2ccc(F)cc2)[nH]c2ccccc12)C(=O)c1c[nH]c2ccccc12` (configuration not stated), the intracellular bacterial bioluminescence was inactive: 66.6%.

With `Cc1ccc(Nc2nc(NCCOCCO)nc(N)c2[N+](=O)[O-])cc1C`, the intracellular bacterial bioluminescence was inactive: 16.6%.

On to `Cc1ccc(-n2nc(C)c3c(C)cc(=O)[nH]c32)cc1C`, for which the intracellular bacterial bioluminescence is inactive: 112%.

Take `O=C1C2C3CC(C2C(=O)N1c1ccc(Cl)cc1)C1C(c2cccnc2)c2sc(=O)[nH]c2SC31` (configuration not stated): the intracellular bacterial bioluminescence is inactive: 107%.

Take `CSc1ccccc1NS(=O)(=O)c1cc2c3c(c1)CCC(=O)N3CCC2`: the intracellular bacterial bioluminescence is inactive: 82.1%.

On to `COC(=O)c1ccc(NC(=O)CSc2ncc(CO)n2Cc2ccc(F)cc2)cc1`, for which the intracellular bacterial bioluminescence was inactive: 78.9%.

Regarding `Cc1cc(C)c2nc(NC(=O)CSc3ccccc3)sc2c1`, the intracellular bacterial bioluminescence is inactive: 75.6%.

As for `O=C1C(NS(=O)(=O)c2ccccc2)=C/C(=N\S(=O)(=O)c2ccc(F)cc2)c2ccccc21`, the intracellular bacterial bioluminescence was inactive: 138%.

In the case of `CCOc1ccccc1Nc1ncnc2c1c(C)c(C)n2-c1cccc(F)c1`, the intracellular bacterial bioluminescence is inactive: 117%.

Regarding `CNc1n[nH]c(N)c1-c1nc(-c2ccccc2C)no1`, the intracellular bacterial bioluminescence is inactive: 92.5%.

Turning to `CC1=NN(Cc2ccccc2C)c2nc3c(c(=O)n(C)c(=O)n3C)n2C1C` (configuration not stated), the intracellular bacterial bioluminescence is inactive: 101%.

In the case of `COc1cccc(C2C(C(=O)c3ccncc3)=C(O)C(=O)N2CCCN2CCOCC2)c1` (configuration not stated), the intracellular bacterial bioluminescence was inactive: 93.3%.

Regarding `O=C(Nn1c(C2CCC2)nc2ccccc2c1=O)c1ccc(-c2ccccc2)cc1`, the intracellular bacterial bioluminescence is inactive: 95.2%.

On to `CC(=O)Nc1cc2nc(C)n(Cc3ccccc3[N+](=O)[O-])c2nc1C`, for which the intracellular bacterial bioluminescence was inactive: 110%.

As for `Cc1ccc(C)c(NS(=O)(=O)c2ccc3[nH]c(=O)cc(C)c3c2)c1`, the intracellular bacterial bioluminescence is inactive: 115%.

On to `Cc1ccnc(N2CCCC(C(=O)NCc3ccc(Cl)cc3)C2)n1` (configuration not stated), for which the intracellular bacterial bioluminescence was inactive: 87.9%.

Turning to `COCCOC(=O)c1c(C)oc2cc(Br)c(OCC(N)=O)cc12`, the intracellular bacterial bioluminescence was inactive: 91.5%.

For the compound `O=C(Nc1ccc2c(c1)CCC2)C1CCN(C(=O)Nc2ccc(Cl)cc2)CC1`, the intracellular bacterial bioluminescence was inactive: 50.9%.

On to `O=[N+]([O-])c1cccc(NC(c2ccco2)c2ccc3cccnc3c2O)c1` (configuration not stated), for which the intracellular bacterial bioluminescence was inactive: 70.3%.

For the compound `O=C(Nc1c(-c2ccccc2)nc2ccccn12)c1cccc([N+](=O)[O-])c1`, the intracellular bacterial bioluminescence was inactive: 82.5%.

As for `COc1cc(NC(=O)Cn2cccc2-c2nc(-c3ccccc3)cs2)cc(OC)c1`, the intracellular bacterial bioluminescence is inactive: 96.1%.
